# ChEMBL document CHEMBL4130349, “Discovery and structure-activity relationship studies of 2-benzylidene-2,3-dihydro-1H-inden-1-one and benzofuran-3(2H)-one derivatives as a novel class of potential therapeutics for inflammatory bowel disease” (Eur J Med Chem, 2017)
# Test system: HT-29
# Experiment: Inhibition of TNF-alpha-induced adhesion of BCECF-labeled human U937 cells to human HT-29 cells at 10 uM preincubated for 1 hr followed by TNF-alpha challenge measured after 3 hrs by fluorescence microscopic method relative to control
# Format: functional
structure (smiles),measurement,value
O=C1/C(=C/c2ccncc2)Cc2ccccc21,inhibition at 10 µM,52.1%
